Assay results reported in the supplement of paper PMC12823440, “Inhibitors supercharge kinase turnover through native proteolytic circuits” (Nature, 2025).
Structures can show the parent of a compound that is named as a salt. This is one part of the list. Hit calls seldom repeat between salt and free forms of one compound.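 Kinases, fused to nanoluciferase, were expressed in K562 cells; luminescence was measured every 4 h from 2 to 18 h as percent of control (DMSO = 100%, positive control = 0%). A time point is decreased if signal falls significantly (2 sigma). Hits were called by the authors by a rule that is not shown; the count of time points alone does not decide it.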

Amino acid sequences for entries named in this document (tags omitted). A change or cut given only in a name is not applied to a line headed by its entry.
UniProt P00519, whole entry: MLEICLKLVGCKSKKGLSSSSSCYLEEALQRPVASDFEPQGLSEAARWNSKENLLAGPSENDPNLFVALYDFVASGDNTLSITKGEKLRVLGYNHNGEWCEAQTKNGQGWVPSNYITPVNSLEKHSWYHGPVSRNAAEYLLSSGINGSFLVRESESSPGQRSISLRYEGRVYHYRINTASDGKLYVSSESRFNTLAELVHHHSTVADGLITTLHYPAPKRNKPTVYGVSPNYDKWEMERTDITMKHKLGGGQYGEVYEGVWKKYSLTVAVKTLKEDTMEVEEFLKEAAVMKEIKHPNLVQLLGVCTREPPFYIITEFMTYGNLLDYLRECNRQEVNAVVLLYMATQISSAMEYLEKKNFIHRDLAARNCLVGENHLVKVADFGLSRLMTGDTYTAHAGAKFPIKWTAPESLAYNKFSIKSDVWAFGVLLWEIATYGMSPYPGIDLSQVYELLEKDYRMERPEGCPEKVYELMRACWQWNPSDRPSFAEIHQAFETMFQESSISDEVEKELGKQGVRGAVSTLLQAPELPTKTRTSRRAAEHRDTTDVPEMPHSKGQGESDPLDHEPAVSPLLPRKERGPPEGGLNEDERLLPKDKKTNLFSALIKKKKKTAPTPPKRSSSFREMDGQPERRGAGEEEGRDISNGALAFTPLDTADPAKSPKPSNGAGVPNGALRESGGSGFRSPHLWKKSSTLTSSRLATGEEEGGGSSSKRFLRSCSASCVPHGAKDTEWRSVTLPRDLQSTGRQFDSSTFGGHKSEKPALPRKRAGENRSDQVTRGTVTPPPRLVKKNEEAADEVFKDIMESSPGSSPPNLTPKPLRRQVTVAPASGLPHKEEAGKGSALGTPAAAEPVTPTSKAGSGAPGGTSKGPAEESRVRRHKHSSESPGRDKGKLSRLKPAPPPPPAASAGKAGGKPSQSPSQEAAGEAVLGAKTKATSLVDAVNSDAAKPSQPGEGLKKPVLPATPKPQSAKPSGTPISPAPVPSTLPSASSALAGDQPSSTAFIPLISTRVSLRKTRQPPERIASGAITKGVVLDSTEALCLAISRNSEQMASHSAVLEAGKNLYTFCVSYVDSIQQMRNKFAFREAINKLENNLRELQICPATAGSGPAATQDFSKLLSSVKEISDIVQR
UniProt P31749: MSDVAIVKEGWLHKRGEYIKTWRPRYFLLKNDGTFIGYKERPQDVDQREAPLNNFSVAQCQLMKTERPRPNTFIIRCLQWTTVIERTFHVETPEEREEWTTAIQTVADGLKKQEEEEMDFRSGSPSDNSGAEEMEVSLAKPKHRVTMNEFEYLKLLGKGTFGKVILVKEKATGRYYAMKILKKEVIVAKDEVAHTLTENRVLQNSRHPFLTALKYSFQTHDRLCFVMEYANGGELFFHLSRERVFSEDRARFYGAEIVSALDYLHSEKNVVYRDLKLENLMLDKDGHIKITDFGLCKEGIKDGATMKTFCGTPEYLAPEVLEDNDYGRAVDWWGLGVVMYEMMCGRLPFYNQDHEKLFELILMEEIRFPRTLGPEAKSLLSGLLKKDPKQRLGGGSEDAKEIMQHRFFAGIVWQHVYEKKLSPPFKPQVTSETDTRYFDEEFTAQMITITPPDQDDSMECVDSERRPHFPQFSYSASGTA
UniProt Q9UM73: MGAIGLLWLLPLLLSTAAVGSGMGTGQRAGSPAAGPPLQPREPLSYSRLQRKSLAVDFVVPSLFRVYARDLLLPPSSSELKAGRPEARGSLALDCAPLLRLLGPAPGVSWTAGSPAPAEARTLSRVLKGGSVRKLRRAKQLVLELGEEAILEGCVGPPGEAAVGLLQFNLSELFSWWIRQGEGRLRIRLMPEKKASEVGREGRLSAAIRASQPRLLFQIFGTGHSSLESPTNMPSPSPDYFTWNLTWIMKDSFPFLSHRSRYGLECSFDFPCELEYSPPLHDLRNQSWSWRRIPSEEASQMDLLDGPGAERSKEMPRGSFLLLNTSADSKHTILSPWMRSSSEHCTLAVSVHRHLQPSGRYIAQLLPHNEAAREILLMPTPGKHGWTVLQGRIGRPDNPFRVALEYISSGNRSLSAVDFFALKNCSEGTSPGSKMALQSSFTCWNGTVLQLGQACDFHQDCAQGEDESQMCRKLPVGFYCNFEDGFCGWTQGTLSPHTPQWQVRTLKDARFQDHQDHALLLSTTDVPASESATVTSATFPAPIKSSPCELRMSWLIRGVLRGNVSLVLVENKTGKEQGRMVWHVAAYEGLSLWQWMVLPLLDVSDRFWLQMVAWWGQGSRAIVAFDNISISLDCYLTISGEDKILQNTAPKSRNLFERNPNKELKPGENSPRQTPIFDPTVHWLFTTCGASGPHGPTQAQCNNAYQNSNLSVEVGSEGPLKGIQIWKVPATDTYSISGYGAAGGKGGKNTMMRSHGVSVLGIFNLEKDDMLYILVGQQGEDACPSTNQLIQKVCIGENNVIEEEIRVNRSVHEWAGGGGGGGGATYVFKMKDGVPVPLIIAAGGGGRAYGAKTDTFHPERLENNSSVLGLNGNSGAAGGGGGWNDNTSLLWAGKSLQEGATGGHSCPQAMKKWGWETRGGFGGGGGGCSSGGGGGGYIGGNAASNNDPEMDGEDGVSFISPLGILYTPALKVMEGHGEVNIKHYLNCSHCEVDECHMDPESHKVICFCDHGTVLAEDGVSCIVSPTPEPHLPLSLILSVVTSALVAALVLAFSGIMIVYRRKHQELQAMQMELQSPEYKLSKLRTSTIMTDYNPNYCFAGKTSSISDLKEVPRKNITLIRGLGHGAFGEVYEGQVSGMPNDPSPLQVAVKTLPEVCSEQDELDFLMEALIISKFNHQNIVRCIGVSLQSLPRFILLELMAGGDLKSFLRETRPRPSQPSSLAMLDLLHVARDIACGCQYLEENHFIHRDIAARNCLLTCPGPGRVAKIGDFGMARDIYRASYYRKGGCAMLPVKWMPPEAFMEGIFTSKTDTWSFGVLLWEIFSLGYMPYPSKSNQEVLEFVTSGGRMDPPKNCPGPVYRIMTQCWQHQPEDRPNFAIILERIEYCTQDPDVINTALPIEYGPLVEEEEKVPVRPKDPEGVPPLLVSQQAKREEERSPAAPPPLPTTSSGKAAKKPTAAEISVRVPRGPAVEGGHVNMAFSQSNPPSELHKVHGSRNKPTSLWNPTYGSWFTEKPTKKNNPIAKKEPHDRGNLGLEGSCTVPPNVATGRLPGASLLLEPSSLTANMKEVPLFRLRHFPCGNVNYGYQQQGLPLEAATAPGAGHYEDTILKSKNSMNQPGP
UniProt O14965: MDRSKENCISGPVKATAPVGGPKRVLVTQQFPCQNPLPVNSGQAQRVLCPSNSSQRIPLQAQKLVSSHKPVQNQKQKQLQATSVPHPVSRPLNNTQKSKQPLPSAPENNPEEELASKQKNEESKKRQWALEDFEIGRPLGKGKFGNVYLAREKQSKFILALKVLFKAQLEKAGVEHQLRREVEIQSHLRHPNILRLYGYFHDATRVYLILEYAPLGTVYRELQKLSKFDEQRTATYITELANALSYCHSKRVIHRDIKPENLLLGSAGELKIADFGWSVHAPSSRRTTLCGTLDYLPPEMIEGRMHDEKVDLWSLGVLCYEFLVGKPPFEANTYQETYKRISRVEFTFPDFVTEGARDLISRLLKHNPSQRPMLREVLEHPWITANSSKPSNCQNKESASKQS
UniProt Q96GD4, whole entry: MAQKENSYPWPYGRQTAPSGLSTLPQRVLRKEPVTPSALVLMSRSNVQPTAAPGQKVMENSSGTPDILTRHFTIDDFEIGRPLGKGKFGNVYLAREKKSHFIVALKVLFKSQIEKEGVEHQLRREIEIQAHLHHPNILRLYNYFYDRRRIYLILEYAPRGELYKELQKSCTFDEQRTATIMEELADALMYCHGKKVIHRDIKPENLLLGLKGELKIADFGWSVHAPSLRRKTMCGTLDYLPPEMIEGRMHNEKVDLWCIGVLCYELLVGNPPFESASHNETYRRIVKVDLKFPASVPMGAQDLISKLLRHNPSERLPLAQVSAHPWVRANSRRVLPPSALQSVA
UniProt Q9UQB9: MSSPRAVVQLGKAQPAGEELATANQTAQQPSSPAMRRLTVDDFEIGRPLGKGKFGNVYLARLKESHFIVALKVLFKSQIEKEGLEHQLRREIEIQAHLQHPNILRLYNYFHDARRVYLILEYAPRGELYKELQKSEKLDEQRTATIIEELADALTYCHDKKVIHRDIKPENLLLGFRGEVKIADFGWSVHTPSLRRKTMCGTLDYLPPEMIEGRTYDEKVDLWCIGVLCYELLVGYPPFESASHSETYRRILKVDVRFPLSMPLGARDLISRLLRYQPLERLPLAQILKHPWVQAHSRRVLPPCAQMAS
UniProt P51451: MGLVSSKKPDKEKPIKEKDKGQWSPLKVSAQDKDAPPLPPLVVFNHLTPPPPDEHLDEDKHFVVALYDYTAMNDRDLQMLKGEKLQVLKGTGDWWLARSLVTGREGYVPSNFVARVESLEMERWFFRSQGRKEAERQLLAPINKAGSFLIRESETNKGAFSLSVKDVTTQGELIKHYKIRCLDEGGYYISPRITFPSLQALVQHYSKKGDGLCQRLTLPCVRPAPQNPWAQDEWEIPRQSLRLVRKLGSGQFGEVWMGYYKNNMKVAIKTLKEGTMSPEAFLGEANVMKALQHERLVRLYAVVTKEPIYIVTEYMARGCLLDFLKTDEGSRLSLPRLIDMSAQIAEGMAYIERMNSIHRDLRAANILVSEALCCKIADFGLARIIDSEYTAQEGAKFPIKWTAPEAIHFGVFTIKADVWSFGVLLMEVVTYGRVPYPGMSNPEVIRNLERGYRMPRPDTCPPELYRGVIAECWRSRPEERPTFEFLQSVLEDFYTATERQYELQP
UniProt P15056, whole entry, looked up: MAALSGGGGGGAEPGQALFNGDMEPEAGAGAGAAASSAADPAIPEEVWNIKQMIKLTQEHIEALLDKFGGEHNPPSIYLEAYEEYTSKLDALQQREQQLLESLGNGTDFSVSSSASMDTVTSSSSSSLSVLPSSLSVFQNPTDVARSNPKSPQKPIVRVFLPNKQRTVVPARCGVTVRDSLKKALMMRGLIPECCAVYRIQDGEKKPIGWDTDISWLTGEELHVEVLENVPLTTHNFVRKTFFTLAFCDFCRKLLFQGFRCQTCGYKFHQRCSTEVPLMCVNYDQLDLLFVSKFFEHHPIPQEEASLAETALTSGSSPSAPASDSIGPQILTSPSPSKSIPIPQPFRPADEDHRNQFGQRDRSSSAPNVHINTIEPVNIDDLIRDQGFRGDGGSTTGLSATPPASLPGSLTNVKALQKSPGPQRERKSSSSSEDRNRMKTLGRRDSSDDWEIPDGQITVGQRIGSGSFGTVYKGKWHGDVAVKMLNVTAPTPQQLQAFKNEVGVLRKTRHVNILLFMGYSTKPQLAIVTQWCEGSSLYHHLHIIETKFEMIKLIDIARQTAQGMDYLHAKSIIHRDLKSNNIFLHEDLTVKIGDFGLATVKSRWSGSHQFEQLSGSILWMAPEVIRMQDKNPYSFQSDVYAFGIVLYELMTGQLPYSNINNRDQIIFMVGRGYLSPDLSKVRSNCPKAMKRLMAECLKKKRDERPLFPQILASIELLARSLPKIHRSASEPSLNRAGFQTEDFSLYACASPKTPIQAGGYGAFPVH
UniProt P51813: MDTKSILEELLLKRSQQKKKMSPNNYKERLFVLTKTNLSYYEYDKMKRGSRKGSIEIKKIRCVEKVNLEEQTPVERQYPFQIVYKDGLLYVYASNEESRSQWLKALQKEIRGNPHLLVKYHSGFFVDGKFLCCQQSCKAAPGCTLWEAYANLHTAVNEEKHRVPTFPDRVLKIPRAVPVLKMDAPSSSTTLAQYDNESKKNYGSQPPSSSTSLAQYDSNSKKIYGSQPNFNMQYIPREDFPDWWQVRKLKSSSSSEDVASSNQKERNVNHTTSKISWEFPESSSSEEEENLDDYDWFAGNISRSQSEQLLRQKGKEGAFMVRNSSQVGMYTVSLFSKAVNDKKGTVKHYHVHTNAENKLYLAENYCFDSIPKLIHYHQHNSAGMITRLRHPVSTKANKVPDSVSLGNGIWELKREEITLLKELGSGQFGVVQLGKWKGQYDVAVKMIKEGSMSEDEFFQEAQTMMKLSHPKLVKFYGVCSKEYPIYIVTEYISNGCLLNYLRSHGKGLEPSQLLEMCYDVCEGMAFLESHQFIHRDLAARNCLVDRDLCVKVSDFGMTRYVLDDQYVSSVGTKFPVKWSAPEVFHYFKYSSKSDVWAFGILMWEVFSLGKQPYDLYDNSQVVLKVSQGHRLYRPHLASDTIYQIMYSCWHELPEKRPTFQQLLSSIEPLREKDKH

Legend:
Experiment in all cases: kinase-Nluc reporter destabilization hit call (1 = scored as downregulated) (binary); higher = compound decreases kinase abundance
Conditions in all cases: K562, 2-18 h
ABL1 = ABL1 (UniProt P00519)
AKT1 = AKT1 (UniProt P31749)
ALK = ALK (UniProt Q9UM73)
ARAF = ARAF (UniProt P10398)
AURKA = AURKA (UniProt O14965)
AURKB = AURKB (UniProt Q96GD4)
AURKC = AURKC (UniProt Q9UQB9)
BLK = BLK (UniProt P51451)
BRAF = BRAF (UniProt P15056)
BMX = BMX (UniProt P51813)

Measured: kinase-Nluc reporter destabilization hit call

C=CC(=O)N1CCC([C@@H]2CCNc3c(C(N)=O)c(-c4ccc(Oc5ccccc5)cc4)nn32)CC1 [Zanubrutinib]
inactive: ABL1; 10 µM 0 | AKT1; 10 µM 0 | ALK; 10 µM 0 | ARAF; 10 µM 0 | AURKA; 10 µM 0 | AURKB; 10 µM 0 | AURKC; 10 µM 0 | BLK; 10 µM 0 | BRAF; 10 µM 0

C[C@@H]1O[C@@H](Oc2c(-c3ccc(O)c(O)c3)oc3cc(O)cc(O)c3c2=O)[C@H](O)[C@H](O)[C@H]1O [Quercitrin]
inactive: ABL1; 10 µM 0 | AKT1; 10 µM 0 | ALK; 10 µM 0 | ARAF; 10 µM 0 | AURKA; 10 µM 0 | AURKB; 10 µM 0 | BLK; 10 µM 0 | BMX; 10 µM 0 | BRAF; 10 µM 0

O=C(c1ccc(/C=C/c2n[nH]c3ccccc23)cc1)N1CCNCC1
inactive: ABL1; 2.5 µM 0 | AKT1; 2.5 µM 0 | ALK; 2.5 µM 0 | ARAF; 2.5 µM 0 | AURKA; 2.5 µM 0 | AURKB; 2.5 µM 0 | AURKC; 2.5 µM 0 | BLK; 2.5 µM 0 | BRAF; 2.5 µM 0

COc1cc(N2CCC(N3CCN(C)CC3)CC2)ccc1Nc1ncc(Cl)c(Nc2ccccc2S(=O)(=O)C(C)C)n1
inactive: ABL1; 2.5 µM 0 | AKT1; 2.5 µM 0 | ARAF; 2.5 µM 0 | AURKA; 2.5 µM 0 | AURKB; 2.5 µM 0 | AURKC; 2.5 µM 0 | BLK; 2.5 µM 0 | BRAF; 2.5 µM 0

CCc1cc2c(cc1-c1cnn(CC(=O)N(C)C)c1)C(C)(C)c1[nH]c3cc(C#N)ccc3c1C2=O
inactive: ABL1; 2.5 µM 0 | AKT1; 2.5 µM 0 | ALK; 2.5 µM 0 | ARAF; 2.5 µM 0 | AURKA; 2.5 µM 0 | AURKB; 2.5 µM 0 | AURKC; 2.5 µM 0 | BMX; 2.5 µM 0 | BRAF; 2.5 µM 0

O=C1NCCc2[nH]c(-c3ccncc3)cc21
inactive: ABL1; 2.5 µM 0 | AKT1; 2.5 µM 0 | ALK; 2.5 µM 0 | ARAF; 2.5 µM 0 | AURKA; 2.5 µM 0 | AURKB; 2.5 µM 0 | AURKC; 2.5 µM 0 | BMX; 2.5 µM 0 | BRAF; 2.5 µM 0

O=C(Nc1cccc(Cl)c1)Nc1ncc(CCNc2ncnc3ccsc23)s1 [SNS-314 (mesylate)]
inactive: ABL1; 10 µM 0 | AKT1; 10 µM 0 | ALK; 10 µM 0 | ARAF; 10 µM 0 | AURKB; 10 µM 0 | AURKC; 10 µM 0 | BMX; 10 µM 0

COc1cc(N2CCN(C)CC2)ccc1Nc1nccc(-c2cn(C)c3cnccc23)n1
inactive: ABL1; 10 µM 0 | AKT1; 10 µM 0 | ALK; 10 µM 0 | ARAF; 10 µM 0 | AURKA; 10 µM 0 | AURKB; 10 µM 0 | BLK; 10 µM 0 | BMX; 10 µM 0 | BRAF; 10 µM 0

CC(C)[C@@](C)(O)[C@@H]1CN(c2nc(-c3[nH]nc4ncccc34)c(F)cc2Cl)CCN1
inactive: ABL1; 10 µM 0 | AKT1; 10 µM 0 | ALK; 10 µM 0 | ARAF; 10 µM 0 | AURKA; 10 µM 0 | AURKB; 10 µM 0 | AURKC; 10 µM 0 | BLK; 10 µM 0 | BRAF; 10 µM 0

C=CC(=O)N1CCC[C@@H](n2nc(-c3ccc(Oc4ccccc4)cc3)c3c(N)ncnc32)C1 [Ibrutinib]
inactive: ABL1; 2.5 µM 0 | AKT1; 2.5 µM 0 | ALK; 2.5 µM 0 | ARAF; 2.5 µM 0 | AURKA; 2.5 µM 0 | AURKB; 2.5 µM 0 | AURKC; 2.5 µM 0 | BLK; 2.5 µM 0 | BRAF; 2.5 µM 0

C[C@H]1CN(C2COC2)CCN1c1ccc(Nc2cc(-c3ccnc(N4CCn5c(cc6c5CC(C)(C)C6)C4=O)c3CO)cn(C)c2=O)nc1 [Fenebrutinib]
inactive: ABL1; 10 µM 0 | AKT1; 10 µM 0 | ALK; 10 µM 0 | ARAF; 10 µM 0 | AURKA; 10 µM 0 | AURKB; 10 µM 0 | AURKC; 10 µM 0 | BLK; 10 µM 0 | BRAF; 10 µM 0

CCCCCCCCCCCCc1ccc(S(=O)(=O)Nc2nncs2)cc1
inactive: ABL1; 10 µM 0 | ALK; 10 µM 0 | ARAF; 10 µM 0 | AURKB; 10 µM 0 | AURKC; 10 µM 0 | BLK; 10 µM 0 | BMX; 10 µM 0 | BRAF; 10 µM 0

CCn1c(=O)c(-c2cc(NC(=O)Nc3ccccc3)c(F)cc2Br)cc2cnc(NC)cc21 [Ripretinib]
inactive: ABL1; 10 µM 0 | AKT1; 10 µM 0 | ARAF; 10 µM 0 | AURKA; 10 µM 0 | AURKB; 10 µM 0 | AURKC; 10 µM 0 | BLK; 10 µM 0 | BMX; 10 µM 0 | BRAF; 10 µM 0

CC(C)N(CCC(=O)c1ccc2ccccc2c1)Cc1ccccc1
inactive: ABL1; 10 µM 0 | AKT1; 10 µM 0 | ALK; 10 µM 0 | ARAF; 10 µM 0 | AURKB; 10 µM 0 | AURKC; 10 µM 0 | BLK; 10 µM 0 | BMX; 10 µM 0 | BRAF; 10 µM 0

Nc1ncccc1-c1nc2ccc(-c3ccccc3)nc2n1-c1ccc(C2(N)CCC2)cc1 [Miransertib]
inactive: ABL1; 10 µM 0 | ALK; 10 µM 0 | ARAF; 10 µM 0 | AURKA; 10 µM 0 | AURKB; 10 µM 0 | AURKC; 10 µM 0 | BLK; 10 µM 0 | BMX; 10 µM 0 | BRAF; 10 µM 0

COc1ccc(-c2cc3nccn3c(Nc3ncccc3C(N)=O)n2)cc1OC [BAY 61-3606 (dihydrochloride)]
inactive: ABL1; 2.5 µM 0 | AKT1; 2.5 µM 0 | ALK; 2.5 µM 0 | ARAF; 2.5 µM 0 | AURKA; 2.5 µM 0 | AURKB; 2.5 µM 0 | AURKC; 2.5 µM 0 | BMX; 2.5 µM 0 | BRAF; 2.5 µM 0

At a glance, 3 of the compounds above.
CCn1c(=O)c(-c2cc(NC(=O)Nc3ccccc3)c(F)cc2Br)cc2cnc(NC)cc21 [Ripretinib]
inactive: ABL1; 10 µM 0 | AKT1; 10 µM 0 | ARAF; 10 µM 0 | AURKA; 10 µM 0 | AURKB; 10 µM 0 | AURKC; 10 µM 0 | BLK; 10 µM 0 | BMX; 10 µM 0 | BRAF; 10 µM 0

CC(C)N(CCC(=O)c1ccc2ccccc2c1)Cc1ccccc1
inactive: ABL1; 10 µM 0 | AKT1; 10 µM 0 | ALK; 10 µM 0 | ARAF; 10 µM 0 | AURKB; 10 µM 0 | AURKC; 10 µM 0 | BLK; 10 µM 0 | BMX; 10 µM 0 | BRAF; 10 µM 0

Nc1ncccc1-c1nc2ccc(-c3ccccc3)nc2n1-c1ccc(C2(N)CCC2)cc1 [Miransertib]
inactive: ABL1; 10 µM 0 | ALK; 10 µM 0 | ARAF; 10 µM 0 | AURKA; 10 µM 0 | AURKB; 10 µM 0 | AURKC; 10 µM 0 | BLK; 10 µM 0 | BMX; 10 µM 0 | BRAF; 10 µM 0

Continued.

COc1ccc(-c2cc(C(=O)NN=C(C)c3ccc(OC)c(OC)c3)[nH]n2)cc1
inactive: ABL1; 10 µM 0 | AKT1; 10 µM 0 | ALK; 10 µM 0 | AURKA; 10 µM 0 | AURKB; 10 µM 0 | AURKC; 10 µM 0 | BLK; 10 µM 0 | BMX; 10 µM 0 | BRAF; 10 µM 0
